# The supplement of paper PMC8104966
# Where “and” joins values, the source holds several entries; their conditions need not be identical. Equal entries are not always repeated. The list shows a part of the results. Repeats in this data set agree poorly, so a single value says little.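 Fusion between ACE2-bearing and full-length-spike-bearing U2OS cells was measured by imaging as the percentage of nuclei with both cell types' fluorescent markers. An inhibitory hit is a non-toxic compound whose fusion z-score is below -3, more than three standard deviations beneath the plate's DMSO wells.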
# Test system: U2OS ACE2 x SARS-CoV-2 spike co-culture
# Experiment: cell-cell fusion (fraction fused) z-score vs plate DMSO control; higher = more fusion
# Details: 30 µM; 5 h; toxicity class: non-toxic, passed QC
row,SMILES,cell-cell fusion (z-score)
1,O=C(O)[C@@H]1CCCN1 [proline],inactive: -0.606
2,CC(C)(C)NC(=O)[C@H]1CC[C@H]2[C@@H]3CC[C@H]4NC(=O)C=C[C@]4(C)[C@H]3CC[C@]12C [Finasteride],inactive: 3.48
3,Cl.c1ccc2c(N3CCNCC3)cccc2c1 [1-(1-Naphthyl)piperazine hydrochloride],inactive: 2.07
4,CN(C)[C@@H]1C(O)=C(C(N)=O)C(=O)[C@@]2(O)C(O)=C3C(=O)c4c(O)cccc4[C@@](C)(O)[C@H]3C[C@@H]12.Cl,inactive: 2
5,CC[C@H]1OC(=O)[C@H](C)[C@@H](O[C@H]2C[C@@](C)(OC)[C@@H](O)[C@H](C)O2)[C@H](C)[C@@H](O[C@@H]2O[C@H](C)C[C@H](N(C)C)[C@H]2O)[C@](C)(O)C[C@@H](C)/C(=N\OCOCCOC)[C@H](C)[C@@H](O)[C@]1(C)O,inactive: 4.13
6,Cc1cccc(C)c1OCC(N)C(C)C.I (stereo unspecified),inactive: 3.18
7,Nc1nccc(Oc2ccc(NC(=O)c3c[nH]cc(-c4ccc(F)cc4)c3=O)cc2F)c1Cl,inactive: 0.942 and inactive: 2.34
8,[Cl-].[Cl-].[Cl-].[Cl-].[Cl-].[Cl-].[NH3+][Ru]([NH3+])([NH3+])([NH3+])([NH3+])[O][Ru]([NH3+])([NH3+])([NH3+])([NH3+])[O][Ru]([NH3+])([NH3+])([NH3+])([NH3+])[NH3+] [Ruthenium red],inactive: -0.212
9,C=C1CC[C@H](O)C/C1=C/C=C1\CCC[C@]2(C)[C@@H]([C@H](C)CCCC(C)(C)O)CC[C@@H]12 [Calcifediol],inactive: 1.85
10,CN1C(=O)CCS(=O)(=O)C1c1ccc(Cl)cc1 (stereo unspecified) [Chlormezanone],inactive: 1.52
11,CC(C)(C)[C@]1(O)CCN2C[C@H]3c4ccccc4CCc4cccc(c43)[C@@H]2C1.Cl (racemic) [(±)-Butaclamol hydrochloride],inactive: 2.17
12,COc1cc2ncnc(Nc3ccc(F)c(Cl)c3)c2cc1OCCCN1CCOCC1 [Gefitinib],inactive: 0.632
13,CCN(CC)CC(=O)Nc1c(C)cccc1C.Cl [Lidocaine hydrochloride],inactive: 2.33
14,CCN(CC)CC(=O)Nc1c(C)cccc1C.Cl,inactive: 1.71
15,Cc1cc2cc3c(C)cc(=O)oc3c(C)c2o1,inactive: 2.23
16,CC(=O)/C=C1\C(=O)N(C)c2ccccc21 [Supercinnamaldehyde],inactive: 0.662
17,Cc1ccc(NC(=O)c2cccc(N(C)C)c2)cc1NC(=O)c1ccc(O)cc1,inactive: 2.8
18,Nc1nc(=O)c2c([nH]1)NCC(CNc1ccc(C(=O)N[C@@H](CCC(=O)[O-])C(=O)[O-])cc1)N2C=O.O.O.O.O.O.[Ca+2] (stereo partly specified) [Folinic Acid Calcium Salt Pentahydrate],inactive: 3.52
19,Cc1nc2n(c(=O)c1CCN1CCC(c3noc4cc(F)ccc34)CC1)CCCC2O (stereo unspecified) [Paliperidone],inactive: 1.78
20,C#CCCCCCCCCCCCC(O)CC(O)COC(C)=O (stereo unspecified),inactive: 2.2
21,Cl.Clc1cccc(Cl)c1N=C1NCCN1 [Clonidine hydrochloride],inactive: 0.734
22,Cl.Clc1cccc(Cl)c1N=C1NCCN1,inactive: 0.275

row,SMILES,cell-cell fusion (z-score)
1,CCC(C)[C@H]1O[C@]2(C=C[C@@H]1C)C[C@@H]1C[C@@H](C/C=C(\C)[C@@H](OC3C[C@H](OC)C(O[C@H]4C[C@H](OC)[C@@H](NC(C)=O)[C@H](C)O4)[C@H](C)O3)[C@@H](C)/C=C/C=C3\CO[C@@H]4[C@H](O)C(C)=C[C@@H](C(=O)O1)[C@]34O)O2 (stereo partly specified),active: -16.7
2,NS(=O)(=O)c1cc2c(cc1Cl)NCNS2(=O)=O [Hydrochlorothiazide],inactive: 3.94
3,NS(=O)(=O)c1cc2c(cc1Cl)NCNS2(=O)=O,inactive: 1.91
4,CC(=O)OCC(=O)[C@@]1(O)CC[C@H]2[C@@H]3CCC4=CC(=O)CC[C@]4(C)[C@H]3[C@@H](O)C[C@@]21C [Hydrocortisone acetate],inactive: 2.3
5,Cn1cnc2c(NCc3ccccc3)nc(NCCO)nc21 [Olomoucine],inactive: 3.08
6,CCCNC(C)C(=O)Nc1ccccc1C.Cl (stereo unspecified) [Propitocaine hydrochloride],inactive: 3.36
7,CCOc1cc(NC(C)=O)ccc1C(=O)OC,inactive: 2.36
8,C[C@@H](c1ncncc1F)[C@](O)(Cn1cncn1)c1ccc(F)cc1F [Voriconazole],inactive: 1.24
9,CCCc1ncc(C[n+]2ccccc2C)c(N)n1.[Cl-],inactive: 2.84
10,Cc1cc(N)c2ccccc2[n+]1CCCCCCCCCC[n+]1c(C)cc(N)c2ccccc21.[Cl-].[Cl-] [Dequalinium chloride hydrate],inactive: 1.46
11,CCOC(=O)C1=C(O)C(=O)N(Cc2ccccc2)C1,inactive: 2.11
12,COC[C@]12CN(C=O)C3[C@@H]4[C@H](OC)C1[C@]3(C1CC3(O)C(OC)C(O)C4(OC(C)=O)C1C3OC(=O)c1ccccc1)[C@@H](OC)C[C@H]2O (stereo partly specified),inactive: 1.64
13,NC(=O)c1cccnc1,inactive: 2.65
14,O=C(N[C@H]1CN2CC[C@H]1CC2)C1=CC2=C(OC=C2)C=N1,inactive: 1.9
15,Cc1ccc(C(=O)Nc2ccc(S(=O)(=O)[O-])c3cc(S(=O)(=O)[O-])cc(S(=O)(=O)[O-])c23)cc1NC(=O)c1cccc(NC(=O)Nc2cccc(C(=O)Nc3cc(C(=O)Nc4ccc(S(=O)(=O)[O-])c5cc(S(=O)(=O)[O-])cc(S(=O)(=O)[O-])c45)ccc3C)c2)c1.[Na+].[Na+].[Na+].[Na+].[Na+].[Na+] [Suramin sodium salt],active: -4.51
16,NC(=O)c1cccc(N)c1,inactive: 2.27
17,CC(CCc1ccccc1)NCC(O)c1ccc(O)c(C(N)=O)c1.Cl (stereo unspecified) [Labetalol hydrochloride],inactive: 2.49
18,COc1cc(C(=O)OCCCN2CCCN(CCCOC(=O)c3cc(OC)c(OC)c(OC)c3)CC2)cc(OC)c1OC.Cl.Cl,inactive: 0.324
19,CN1CCN(CC/C=C2\c3ccccc3Sc3ccc(S(=O)(=O)N(C)C)cc32)CC1,inactive: -1.64
20,CN[C@@H]1[C@H](O)[C@H](NC)[C@H]2O[C@@]3(O)C(=O)C[C@@H](C)O[C@H]3O[C@@H]2[C@H]1O.Cl.Cl,inactive: 0.933
21,COc1cc2c(cc1OC)C1C(=O)c3c(cc4c(c3O)C=CC(C)(C)O4)OC1CO2 (stereo not drawn) [beta-TOXICAROL],inactive: 1.74
22,CC(C)(C)NCC(O)COc1cccc2c1CCC(=O)N2.Cl (stereo unspecified),inactive: 1.22

row,SMILES,cell-cell fusion (z-score)
1,CC1CCCC(C)N1 (stereo unspecified),inactive: 1.4
2,CN1C2CCC1CC(OC(c1ccccc1)c1ccccc1)C2.CS(=O)(=O)O (stereo unspecified) [Benztropine mesylate],inactive: 2.23
3,CNC(=O)Oc1ccc2c(c1)[C@]1(C)CCN(C)[C@@H]1N2C [(-)-Physostigmine],inactive: 2.58
4,CC(=O)N[C@@H](CC(C)C)C(=O)O,inactive: 2.46
5,CN(C)CCCN1c2ccccc2Sc2ccc(Cl)cc21.Cl [Chlorpromazine hydrochloride],inactive: 0.287
6,CCCCC1=NC2(CCCC2)C(=O)N1Cc1ccc(-c2ccccc2-c2nn[nH]n2)cc1 [Irbesartan],inactive: 3.11
7,O=C(/C=C/c1cccnc1)NCCCCC1CCN(C(=O)c2ccccc2)CC1,inactive: 1.67
8,OC[C@@H](O)[C@@H](O[C@@H]1O[C@H](CO)[C@H](O)[C@H](O)[C@H]1O)[C@H](O)[C@@H](O)CO,inactive: 3.29
9,CC(C)c1ccc2oc3nc(N)c(C(=O)O)cc3c(=O)c2c1 [Amlexanox],inactive: 1
10,CC1=NN(c2ccc(C)c(C)c2)C(=O)/C1=N\Nc1cccc(-c2cccc(C(=O)O)c2)c1O.NCCO.NCCO [Eltrombopag Olamine],inactive: 2.78
11,O=c1[nH]cnc2nc[nH]c12,inactive: 2.02
12,CO[C@H]1O[C@@H]2O[C@]3(C)CC[C@@H]4[C@@H](C)CC[C@H]([C@H]1C)[C@]24OO3 [Artemether],inactive: 1.35
13,CCCCCCCCCCCCc1ccc(S(=O)(=O)Nc2nncs2)cc1,inactive: 1.19
14,CC(C)(C)NC(=O)[C@H]1CCC2C3CCC4NC(=O)C=C[C@]4(C)C3CC[C@@]21C (stereo partly specified),inactive: 3.48
15,N#CC(CCCN1CCN(/N=C/c2cccnc2)CC1)(c1ccccc1)c1ccccc1,inactive: 4.14
16,Nc1nc2c(cnn2CCc2ccccc2)c2nc(-c3ccco3)nn12,inactive: -1.02
17,Cc1nc2ccccn2c(=O)c1CCN1CCC(C(=O)c2ccc(F)cc2)CC1 [Pirenperone],inactive: 1.1
18,Cc1nc2ccccn2c(=O)c1CCN1CCC(C(=O)c2ccc(F)cc2)CC1,inactive: 0.979
19,CCOC(=O)c1ncn2c1CN(C)C(=O)c1cc(F)ccc1-2 [Flumazenil],inactive: 3.92
20,C[N+](C)(C)CCOC(=O)CBr.[Br-] [Bromoacetylcholine bromide],inactive: 1.62
21,O=C(N[C@@H](CO)[C@H](O)c1ccc([N+](=O)[O-])cc1)C(Cl)Cl,inactive: 1.22
22,COc1cc2oc3cc(OC)c(OC)c(CC=C(C)C)c3c(=O)c2c(OC)c1CC=C(C)C,inactive: 2.72

# Another view of some results above:
row	SMILES	cell-cell fusion (z-score)
7	O=C(/C=C/c1cccnc1)NCCCCC1CCN(C(=O)c2ccccc2)CC1	inactive: 1.67
12	CO[C@H]1O[C@@H]2O[C@]3(C)CC[C@@H]4[C@@H](C)CC[C@H]([C@H]1C)[C@]24OO3 [Artemether]	inactive: 1.35
